The text below walks through data of article doi:10.1101/858647.

By UniProt entry, the sequences of proteins in these tests, tags left out. Residues count along the entry.
UniProt Q14151, 561-726: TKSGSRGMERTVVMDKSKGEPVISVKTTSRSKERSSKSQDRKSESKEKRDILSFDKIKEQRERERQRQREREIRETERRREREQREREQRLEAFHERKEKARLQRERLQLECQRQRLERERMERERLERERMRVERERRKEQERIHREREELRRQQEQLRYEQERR
UniProt Q14151, 512-726: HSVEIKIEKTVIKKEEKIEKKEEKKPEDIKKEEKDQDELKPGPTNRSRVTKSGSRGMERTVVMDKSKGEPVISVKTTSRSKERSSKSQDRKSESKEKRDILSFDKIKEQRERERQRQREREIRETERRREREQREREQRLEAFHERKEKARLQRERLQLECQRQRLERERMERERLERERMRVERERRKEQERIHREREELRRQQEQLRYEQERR
UniProt Q14151, whole entry: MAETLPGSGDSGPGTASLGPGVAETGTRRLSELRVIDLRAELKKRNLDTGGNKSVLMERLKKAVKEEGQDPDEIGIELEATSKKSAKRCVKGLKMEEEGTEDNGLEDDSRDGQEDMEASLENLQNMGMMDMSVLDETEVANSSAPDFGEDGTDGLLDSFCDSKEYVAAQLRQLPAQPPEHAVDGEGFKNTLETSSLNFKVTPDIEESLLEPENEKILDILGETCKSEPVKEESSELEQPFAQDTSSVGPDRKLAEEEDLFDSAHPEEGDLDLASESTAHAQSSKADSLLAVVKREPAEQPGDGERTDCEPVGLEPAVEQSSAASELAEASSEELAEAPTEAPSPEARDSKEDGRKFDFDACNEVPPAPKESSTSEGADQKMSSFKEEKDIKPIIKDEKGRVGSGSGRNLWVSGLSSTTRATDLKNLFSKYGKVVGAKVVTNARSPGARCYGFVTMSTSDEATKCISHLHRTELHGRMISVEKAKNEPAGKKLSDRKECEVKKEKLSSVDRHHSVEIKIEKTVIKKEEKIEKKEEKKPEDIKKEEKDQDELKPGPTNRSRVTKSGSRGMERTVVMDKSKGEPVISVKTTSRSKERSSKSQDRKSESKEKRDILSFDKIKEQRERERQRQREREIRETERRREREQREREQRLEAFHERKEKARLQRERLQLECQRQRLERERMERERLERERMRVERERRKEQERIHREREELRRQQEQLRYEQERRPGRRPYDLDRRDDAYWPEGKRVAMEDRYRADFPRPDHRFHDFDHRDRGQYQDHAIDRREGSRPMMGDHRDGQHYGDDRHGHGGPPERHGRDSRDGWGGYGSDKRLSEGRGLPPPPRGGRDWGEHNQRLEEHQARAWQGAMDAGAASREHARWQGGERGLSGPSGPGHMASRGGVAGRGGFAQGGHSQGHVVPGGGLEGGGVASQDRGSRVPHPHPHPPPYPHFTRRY

Assay in all cases: co-IP
The target in one test is flag-SAFB2^min (human) (UniProt Q14151).
Test [1] concerns the target flag-SAFB2^aa512-726 (human) (UniProt Q14151).
For test [2], the target named is full-length flag-SAFB2 (human) (UniProt Q14151).

These are yes or no findings as the source states them, for the method shown. Binding seen in cells or lysates may run through a third protein. Some binding calls cover weakened binding; strength is not graded here. For some assays here: Sequences can lack the tags named with a protein.

B1: HA-tagged N-terminal part of DROSHA (aa1-389) (domain or fragment, UniProt Q9NRR4 1-389)
chain: MMQGNTCHRMSFHPGRGCPRGRGGHGARPSAPSFRPQNLRLLHPQQPPVQYQYEPPSAPSTTFSNSPAPNFLPPRPDFVPFPPPMPPSAQGPLPPCPIRPPFPNHQMRHPFPVPPCFPPMPPPMPCPNNPPVPGAPPGQGTFPFMMPPPSMPHPPPPPVMPQQVNYQYPPGYSHHNFPPPSFNSFQNNPSSFLPSANNSSSPHFRHLPPYPLPKAPSERRSPERLKHYDDHRHRDHSHGRGERHRSLDRRERGRSPDRRRQDSRYRSDYDRGRTPSRHRSYERSRERERERHRHRDNRRSPSLERSYKKEYKRSGRSYGLSVVPEPAGCTPELPGEIIKNTDSWAPPLEIVNHRSPSREKKRARWEEEKDRWSDNQSSGKDKNYTSIKE
On to B1, for which the binding result with flag-SAFB2^min (human) was “binds”.

B2: endogenous DROSHA (enzyme, UniProt Q9NRR4 1-1374)
chain: MMQGNTCHRMSFHPGRGCPRGRGGHGARPSAPSFRPQNLRLLHPQQPPVQYQYEPPSAPSTTFSNSPAPNFLPPRPDFVPFPPPMPPSAQGPLPPCPIRPPFPNHQMRHPFPVPPCFPPMPPPMPCPNNPPVPGAPPGQGTFPFMMPPPSMPHPPPPPVMPQQVNYQYPPGYSHHNFPPPSFNSFQNNPSSFLPSANNSSSPHFRHLPPYPLPKAPSERRSPERLKHYDDHRHRDHSHGRGERHRSLDRRERGRSPDRRRQDSRYRSDYDRGRTPSRHRSYERSRERERERHRHRDNRRSPSLERSYKKEYKRSGRSYGLSVVPEPAGCTPELPGEIIKNTDSWAPPLEIVNHRSPSREKKRARWEEEKDRWSDNQSSGKDKNYTSIKEKEPEETMPDKNEEEEEELLKPVWIRCTHSENYYSSDPMDQVGDSTVVGTSRLRDLYDKFEEELGSRQEKAKAARPPWEPPKTKLDEDLESSSESECESDEDSTCSSSSDSEVFDVIAEIKRKKAHPDRLHDELWYNDPGQMNDGPLCKCSAKARRTGIRHSIYPGEEAIKPCRPMTNNAGRLFHYRITVSPPTNFLTDRPTVIEYDDHEYIFEGFSMFAHAPLTNIPLCKVIRFNIDYTIHFIEEMMPENFCVKGLELFSLFLFRDILELYDWNLKGPLFEDSPPCCPRFHFMPRFVRFLPDGGKEVLSMHQILLYLLRCSKALVPEEEIANMLQWEELEWQKYAEECKGMIVTNPGTKPSSVRIDQLDREQFNPDVITFPIIVHFGIRPAQLSYAGDPQYQKLWKSYVKLRHLLANSPKVKQTDKQKLAQREEALQKIRQKNTMRREVTVELSSQGFWKTGIRSDVCQHAMMLPVLTHHIRYHQCLMHLDKLIGYTFQDRCLLQLAMTHPSHHLNFGMNPDHARNSLSNCGIRQPKYGDRKVHHMHMRKKGINTLINIMSRLGQDDPTPSRINHNERLEFLGDAVVEFLTSVHLYYLFPSLEEGGLATYRTAIVQNQHLAMLAKKLELDRFMLYAHGPDLCRESDLRHAMANCFEALIGAVYLEGSLEEAKQLFGRLLFNDPDLREVWLNYPLHPLQLQEPNTDRQLIETSPVLQKLTEFEEAIGVIFTHVRLLARAFTLRTVGFNHLTLGHNQRMEFLGDSIMQLVATEYLFIHFPDHHEGHLTLLRSSLVNNRTQAKVAEELGMQEYAITNDKTKRPVALRTKTLADLLESFIAALYIDKDLEYVHTFMNVCFFPRLKEFILNQDWNDPKSQLQQCCLTLRTEGKEPDIPLYKTLQTVGPSHARTYTVAVYFKGERIGCGKGPSIQQAEMGAAMDALEKYNFPQMAHQKRFIERKYRQELKEMRWEREHQEREPDETEDIKK
B2: the binding entry (in test [1]; with flag-SAFB2^min (human); in test [2]) was “binds” throughout.

B3: HA-tagged C-terminal part of DROSHA (aa390-1374) (domain or fragment, UniProt Q9NRR4 390-1374)
chain: KEPEETMPDKNEEEEEELLKPVWIRCTHSENYYSSDPMDQVGDSTVVGTSRLRDLYDKFEEELGSRQEKAKAARPPWEPPKTKLDEDLESSSESECESDEDSTCSSSSDSEVFDVIAEIKRKKAHPDRLHDELWYNDPGQMNDGPLCKCSAKARRTGIRHSIYPGEEAIKPCRPMTNNAGRLFHYRITVSPPTNFLTDRPTVIEYDDHEYIFEGFSMFAHAPLTNIPLCKVIRFNIDYTIHFIEEMMPENFCVKGLELFSLFLFRDILELYDWNLKGPLFEDSPPCCPRFHFMPRFVRFLPDGGKEVLSMHQILLYLLRCSKALVPEEEIANMLQWEELEWQKYAEECKGMIVTNPGTKPSSVRIDQLDREQFNPDVITFPIIVHFGIRPAQLSYAGDPQYQKLWKSYVKLRHLLANSPKVKQTDKQKLAQREEALQKIRQKNTMRREVTVELSSQGFWKTGIRSDVCQHAMMLPVLTHHIRYHQCLMHLDKLIGYTFQDRCLLQLAMTHPSHHLNFGMNPDHARNSLSNCGIRQPKYGDRKVHHMHMRKKGINTLINIMSRLGQDDPTPSRINHNERLEFLGDAVVEFLTSVHLYYLFPSLEEGGLATYRTAIVQNQHLAMLAKKLELDRFMLYAHGPDLCRESDLRHAMANCFEALIGAVYLEGSLEEAKQLFGRLLFNDPDLREVWLNYPLHPLQLQEPNTDRQLIETSPVLQKLTEFEEAIGVIFTHVRLLARAFTLRTVGFNHLTLGHNQRMEFLGDSIMQLVATEYLFIHFPDHHEGHLTLLRSSLVNNRTQAKVAEELGMQEYAITNDKTKRPVALRTKTLADLLESFIAALYIDKDLEYVHTFMNVCFFPRLKEFILNQDWNDPKSQLQQCCLTLRTEGKEPDIPLYKTLQTVGPSHARTYTVAVYFKGERIGCGKGPSIQQAEMGAAMDALEKYNFPQMAHQKRFIERKYRQELKEMRWEREHQEREPDETEDIKK
For B3, in the test with flag-SAFB2^min (human), the binding entry is reported as “no binding”.
